Reference: PubChem BioAssay AID1259308 (NCATS, 2017)
Shown is one part, drawn at random, of about 59,000 deposited reagents. About 1,510 of all reagents (2.6%) were called active. 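Calls use total luciferase alone and ignore viability, so some active siRNAs may act by altering cell number.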 Further read-outs or replicates are left out here.

- Aim: 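Candidate targets for better recombinant protein yield in mammalian cells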 (primary screen)
- Cell system: human HEK293 embryonic kidney cells stably expressing firefly luciferase (HEK-CMV-Luc2-Hygro)
- Reagents: single siRNA against human genes, 0.8 pmol siRNA per well
- Duration: 72 h
- Measurement: 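Reporter luminescence and viable-cell signal on separate replicate plates, given as percent of non-targeting control and median/MAD z-scores, plus per-cell luciferase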
- Scale: total luciferase, z-score and total luciferase, % of control: higher = more reporter protein produced; luciferase per cell, z-score: higher = more reporter output per viable cell
- Active means: 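Active when the median/MAD z-score for overall luciferase is greater than 3; a gene was taken forward for validation with new siRNAs if at least two of its three siRNAs passed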
- Calls: active = raised luciferase; inactive = no rise

| gene | PubChem SID | total luciferase, z-score | total luciferase, % of control | luciferase per cell, z-score | call |
| --- | --- | --- | --- | --- | --- |
| NLRP9 | SID160764004 | 0.936 | 101 | 0.828 | inactive |
| NLRP9 | SID160764005 | 0.347 | 88.8 | 0.227 | inactive |
| NLRP9 | SID160764006 | -0.345 | 75 | -0.696 | inactive |
| ENOPH1 | SID160746812 | -0.0416 | 81.1 | 0.0342 | inactive |
| ENOPH1 | SID160746813 | 3.99 | 161 | 2.17 | active |
| ENOPH1 | SID160746814 | -0.145 | 79 | -0.238 | inactive |
| MBOAT4 | SID160768395 | -0.344 | 75 | 1.27 | inactive |
| MBOAT4 | SID160768396 | -0.95 | 63 | -0.883 | inactive |
| MBOAT4 | SID160768397 | -0.631 | 69.3 | 0.276 | inactive |
| SERPINA6 | SID160732083 | -1.38 | 54.5 | -1.67 | inactive |
| SERPINA6 | SID160737234 | 2.58 | 133 | 1.96 | inactive |
| SERPINA6 | SID160737244 | 1.4 | 110 | 0.936 | inactive |
| CLDND2 | SID160724771 | 0.806 | 97.9 | 0.13 | inactive |
| CLDND2 | SID160732408 | -2.54 | 31.4 | -2.92 | inactive |
| CLDND2 | SID160756341 | 2.26 | 127 | 2.5 | inactive |
| SURF2 | SID160717556 | 0.963 | 101 | 2.88 | inactive |
| SURF2 | SID160717557 | -0.093 | 80 | -0.173 | inactive |
| SURF2 | SID160717558 | -0.155 | 78.8 | -0.344 | inactive |
| SNAP91 | SID160723359 | -0.472 | 72.5 | -1.16 | inactive |
| SNAP91 | SID160723360 | -2.84 | 25.3 | -4.52 | inactive |
| SNAP91 | SID160723361 | 0.154 | 85 | -0.732 | inactive |

Individual results from above:
Entry for MBOAT4 [SID160768395] under “total luciferase, % of control”: 75
Entry for CLDND2 [SID160732408] in “total luciferase, % of control”: 31.4
Entry for CLDND2 [SID160756341] under “total luciferase, % of control”: 127
NLRP9 [SID160764004], call = inactive

The listing continues:
| gene | PubChem SID | total luciferase, z-score | total luciferase, % of control | luciferase per cell, z-score | call |
| --- | --- | --- | --- | --- | --- |
| NOXA1 | SID160724291 | 0.177 | 85.4 | -0.306 | inactive |
| NOXA1 | SID160724292 | -0.725 | 67.5 | -0.58 | inactive |
| NOXA1 | SID160729284 | 1.18 | 105 | 0.339 | inactive |
| CARD19 | SID160735085 | -0.858 | 64.8 | 0.0684 | inactive |
| CARD19 | SID160752011 | -1.27 | 56.6 | -0.0114 | inactive |
| CARD19 | SID160752012 | 0.833 | 98.5 | 0.262 | inactive |
| RPSAP22 | SID160734887 | -0.0744 | 80.4 | -0.577 | inactive |
| RPSAP22 | SID160774472 | 0.0137 | 82.2 | -0.119 | inactive |
| RPSAP22 | SID160774473 | -0.232 | 77.3 | -0.691 | inactive |
| OR10A3 | SID160737996 | 1.16 | 105 | 1.22 | inactive |
| OR10A3 | SID160737997 | -1.34 | 55.3 | -1.18 | inactive |
| OR10A3 | SID160737998 | 0.554 | 92.9 | -0.18 | inactive |
| ADAMTS20 | SID160750028 | -0.399 | 73.9 | 0.26 | inactive |
| ADAMTS20 | SID160750029 | -0.876 | 64.5 | -0.383 | inactive |
| ADAMTS20 | SID160750030 | 0.684 | 95.5 | 0.455 | inactive |
| BUD23 | SID160754897 | -2.48 | 32.6 | -2.6 | inactive |
| BUD23 | SID160754899 | -1.76 | 46.8 | -1.83 | inactive |
| BUD23 | SID160754900 | -1.62 | 49.7 | -0.296 | inactive |
| POLI | SID160730193 | -1.14 | 59.1 | 0.188 | inactive |
| POLI | SID160730194 | -0.807 | 65.8 | -1.25 | inactive |
| POLI | SID160730195 | 0.239 | 86.6 | -0.462 | inactive |
| SIDT1 | SID160733558 | -0.356 | 74.8 | -0.345 | inactive |
| SIDT1 | SID160742304 | 0.606 | 93.9 | -0.117 | inactive |
| SIDT1 | SID160742305 | -0.241 | 77.1 | -0.603 | inactive |
| TFF3 | SID160717968 | -0.315 | 75.6 | 0.151 | inactive |
| TFF3 | SID160717970 | -0.522 | 71.5 | -0.384 | inactive |
| TFF3 | SID160734212 | 0.126 | 84.4 | 0.878 | inactive |
| ST6GALNAC6 | SID160731060 | -0.375 | 74.4 | -0.679 | inactive |
| ST6GALNAC6 | SID160739514 | 1.8 | 118 | 2.06 | inactive |
| ST6GALNAC6 | SID160739515 | 0.361 | 89.1 | -0.0222 | inactive |
| KDM5B | SID160729173 | -0.711 | 67.8 | -1.16 | inactive |
| KDM5B | SID160729174 | -0.86 | 64.8 | -0.609 | inactive |
| KDM5B | SID160729175 | 0.56 | 93 | 0.81 | inactive |
| ENC1 | SID160720192 | -0.386 | 74.2 | -0.722 | inactive |
| ENC1 | SID160720193 | -0.161 | 78.7 | -1.27 | inactive |
| ENC1 | SID160720194 | -0.169 | 78.5 | -0.923 | inactive |
